No constants are given. Whether binding was seen depends on the method and setting. In cells and extracts the contact can be indirect. Here binding means that the protein was enriched with, or labelled near, the bait; the list need not be complete.
biological target: ALPK3–SBP3×FLAG (endogenous alpha kinase 3 with a C-terminal streptavidin-binding peptide 3×FLAG tag) (human (endogenous in hPSC-derived cardiomyocytes)) (UniProt Q96L96); assay: affinity purification with mass spectrometry; anti-FLAG M2 immunoprecipitation (Protein G Dynabeads) from lysates of lactate-purified ALPK3–SBP3×FLAG hPSC CMs against controls; co-IP buffer 150 mM NaCl, 50 mM Tris-HCl pH 7.5, 10% glycerol, 0.1% Triton X-100; 4 °C; on-bead digest, LC-MS/MS; n = 5 per group

Protein sequences, listed by entry. Tags and fused reporters are not part of them.
UniProt Q96L96: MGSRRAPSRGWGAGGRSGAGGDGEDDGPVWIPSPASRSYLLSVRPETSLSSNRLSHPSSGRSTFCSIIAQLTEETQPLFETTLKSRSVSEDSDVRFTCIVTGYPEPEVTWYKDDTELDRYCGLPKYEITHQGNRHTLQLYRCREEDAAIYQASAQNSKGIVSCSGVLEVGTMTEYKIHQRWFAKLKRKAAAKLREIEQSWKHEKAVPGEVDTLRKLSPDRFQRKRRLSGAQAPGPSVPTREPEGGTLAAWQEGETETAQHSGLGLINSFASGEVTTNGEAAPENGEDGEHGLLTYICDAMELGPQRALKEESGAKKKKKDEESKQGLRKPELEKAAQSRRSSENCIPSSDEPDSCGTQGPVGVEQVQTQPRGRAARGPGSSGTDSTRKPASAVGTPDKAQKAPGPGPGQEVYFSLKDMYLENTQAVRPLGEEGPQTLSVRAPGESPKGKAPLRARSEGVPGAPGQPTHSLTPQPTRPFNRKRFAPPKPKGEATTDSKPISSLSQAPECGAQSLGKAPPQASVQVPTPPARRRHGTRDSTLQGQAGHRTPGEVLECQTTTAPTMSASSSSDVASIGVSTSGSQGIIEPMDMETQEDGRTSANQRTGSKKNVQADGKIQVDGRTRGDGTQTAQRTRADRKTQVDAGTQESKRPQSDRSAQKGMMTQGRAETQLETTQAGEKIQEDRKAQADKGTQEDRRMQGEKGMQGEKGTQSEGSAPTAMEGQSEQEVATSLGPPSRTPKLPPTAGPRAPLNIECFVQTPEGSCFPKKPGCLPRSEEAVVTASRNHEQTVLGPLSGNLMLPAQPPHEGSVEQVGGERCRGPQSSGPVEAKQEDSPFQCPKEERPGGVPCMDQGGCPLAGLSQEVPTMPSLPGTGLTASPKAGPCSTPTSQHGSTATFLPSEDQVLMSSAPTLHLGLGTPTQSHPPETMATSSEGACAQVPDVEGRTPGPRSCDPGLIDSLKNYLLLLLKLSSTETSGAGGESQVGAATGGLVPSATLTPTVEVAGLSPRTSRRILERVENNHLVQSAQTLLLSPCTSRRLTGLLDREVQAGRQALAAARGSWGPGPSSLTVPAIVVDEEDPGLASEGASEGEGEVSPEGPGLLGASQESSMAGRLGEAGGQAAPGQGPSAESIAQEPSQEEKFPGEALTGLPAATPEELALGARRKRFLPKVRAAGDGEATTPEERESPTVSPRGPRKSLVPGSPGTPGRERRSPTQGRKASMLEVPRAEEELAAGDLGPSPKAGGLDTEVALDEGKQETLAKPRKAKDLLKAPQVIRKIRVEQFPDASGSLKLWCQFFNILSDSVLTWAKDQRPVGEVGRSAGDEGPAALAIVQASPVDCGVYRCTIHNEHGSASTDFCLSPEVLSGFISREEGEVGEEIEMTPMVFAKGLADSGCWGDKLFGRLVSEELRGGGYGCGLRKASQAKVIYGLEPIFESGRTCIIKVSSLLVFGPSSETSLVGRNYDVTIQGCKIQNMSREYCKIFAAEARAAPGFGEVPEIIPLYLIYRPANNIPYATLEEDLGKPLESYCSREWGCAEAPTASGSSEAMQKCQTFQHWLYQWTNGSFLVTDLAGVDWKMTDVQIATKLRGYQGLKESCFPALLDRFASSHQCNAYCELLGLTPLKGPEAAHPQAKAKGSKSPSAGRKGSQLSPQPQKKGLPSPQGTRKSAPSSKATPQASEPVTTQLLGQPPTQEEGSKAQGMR
UniProt Q7Z6Z7: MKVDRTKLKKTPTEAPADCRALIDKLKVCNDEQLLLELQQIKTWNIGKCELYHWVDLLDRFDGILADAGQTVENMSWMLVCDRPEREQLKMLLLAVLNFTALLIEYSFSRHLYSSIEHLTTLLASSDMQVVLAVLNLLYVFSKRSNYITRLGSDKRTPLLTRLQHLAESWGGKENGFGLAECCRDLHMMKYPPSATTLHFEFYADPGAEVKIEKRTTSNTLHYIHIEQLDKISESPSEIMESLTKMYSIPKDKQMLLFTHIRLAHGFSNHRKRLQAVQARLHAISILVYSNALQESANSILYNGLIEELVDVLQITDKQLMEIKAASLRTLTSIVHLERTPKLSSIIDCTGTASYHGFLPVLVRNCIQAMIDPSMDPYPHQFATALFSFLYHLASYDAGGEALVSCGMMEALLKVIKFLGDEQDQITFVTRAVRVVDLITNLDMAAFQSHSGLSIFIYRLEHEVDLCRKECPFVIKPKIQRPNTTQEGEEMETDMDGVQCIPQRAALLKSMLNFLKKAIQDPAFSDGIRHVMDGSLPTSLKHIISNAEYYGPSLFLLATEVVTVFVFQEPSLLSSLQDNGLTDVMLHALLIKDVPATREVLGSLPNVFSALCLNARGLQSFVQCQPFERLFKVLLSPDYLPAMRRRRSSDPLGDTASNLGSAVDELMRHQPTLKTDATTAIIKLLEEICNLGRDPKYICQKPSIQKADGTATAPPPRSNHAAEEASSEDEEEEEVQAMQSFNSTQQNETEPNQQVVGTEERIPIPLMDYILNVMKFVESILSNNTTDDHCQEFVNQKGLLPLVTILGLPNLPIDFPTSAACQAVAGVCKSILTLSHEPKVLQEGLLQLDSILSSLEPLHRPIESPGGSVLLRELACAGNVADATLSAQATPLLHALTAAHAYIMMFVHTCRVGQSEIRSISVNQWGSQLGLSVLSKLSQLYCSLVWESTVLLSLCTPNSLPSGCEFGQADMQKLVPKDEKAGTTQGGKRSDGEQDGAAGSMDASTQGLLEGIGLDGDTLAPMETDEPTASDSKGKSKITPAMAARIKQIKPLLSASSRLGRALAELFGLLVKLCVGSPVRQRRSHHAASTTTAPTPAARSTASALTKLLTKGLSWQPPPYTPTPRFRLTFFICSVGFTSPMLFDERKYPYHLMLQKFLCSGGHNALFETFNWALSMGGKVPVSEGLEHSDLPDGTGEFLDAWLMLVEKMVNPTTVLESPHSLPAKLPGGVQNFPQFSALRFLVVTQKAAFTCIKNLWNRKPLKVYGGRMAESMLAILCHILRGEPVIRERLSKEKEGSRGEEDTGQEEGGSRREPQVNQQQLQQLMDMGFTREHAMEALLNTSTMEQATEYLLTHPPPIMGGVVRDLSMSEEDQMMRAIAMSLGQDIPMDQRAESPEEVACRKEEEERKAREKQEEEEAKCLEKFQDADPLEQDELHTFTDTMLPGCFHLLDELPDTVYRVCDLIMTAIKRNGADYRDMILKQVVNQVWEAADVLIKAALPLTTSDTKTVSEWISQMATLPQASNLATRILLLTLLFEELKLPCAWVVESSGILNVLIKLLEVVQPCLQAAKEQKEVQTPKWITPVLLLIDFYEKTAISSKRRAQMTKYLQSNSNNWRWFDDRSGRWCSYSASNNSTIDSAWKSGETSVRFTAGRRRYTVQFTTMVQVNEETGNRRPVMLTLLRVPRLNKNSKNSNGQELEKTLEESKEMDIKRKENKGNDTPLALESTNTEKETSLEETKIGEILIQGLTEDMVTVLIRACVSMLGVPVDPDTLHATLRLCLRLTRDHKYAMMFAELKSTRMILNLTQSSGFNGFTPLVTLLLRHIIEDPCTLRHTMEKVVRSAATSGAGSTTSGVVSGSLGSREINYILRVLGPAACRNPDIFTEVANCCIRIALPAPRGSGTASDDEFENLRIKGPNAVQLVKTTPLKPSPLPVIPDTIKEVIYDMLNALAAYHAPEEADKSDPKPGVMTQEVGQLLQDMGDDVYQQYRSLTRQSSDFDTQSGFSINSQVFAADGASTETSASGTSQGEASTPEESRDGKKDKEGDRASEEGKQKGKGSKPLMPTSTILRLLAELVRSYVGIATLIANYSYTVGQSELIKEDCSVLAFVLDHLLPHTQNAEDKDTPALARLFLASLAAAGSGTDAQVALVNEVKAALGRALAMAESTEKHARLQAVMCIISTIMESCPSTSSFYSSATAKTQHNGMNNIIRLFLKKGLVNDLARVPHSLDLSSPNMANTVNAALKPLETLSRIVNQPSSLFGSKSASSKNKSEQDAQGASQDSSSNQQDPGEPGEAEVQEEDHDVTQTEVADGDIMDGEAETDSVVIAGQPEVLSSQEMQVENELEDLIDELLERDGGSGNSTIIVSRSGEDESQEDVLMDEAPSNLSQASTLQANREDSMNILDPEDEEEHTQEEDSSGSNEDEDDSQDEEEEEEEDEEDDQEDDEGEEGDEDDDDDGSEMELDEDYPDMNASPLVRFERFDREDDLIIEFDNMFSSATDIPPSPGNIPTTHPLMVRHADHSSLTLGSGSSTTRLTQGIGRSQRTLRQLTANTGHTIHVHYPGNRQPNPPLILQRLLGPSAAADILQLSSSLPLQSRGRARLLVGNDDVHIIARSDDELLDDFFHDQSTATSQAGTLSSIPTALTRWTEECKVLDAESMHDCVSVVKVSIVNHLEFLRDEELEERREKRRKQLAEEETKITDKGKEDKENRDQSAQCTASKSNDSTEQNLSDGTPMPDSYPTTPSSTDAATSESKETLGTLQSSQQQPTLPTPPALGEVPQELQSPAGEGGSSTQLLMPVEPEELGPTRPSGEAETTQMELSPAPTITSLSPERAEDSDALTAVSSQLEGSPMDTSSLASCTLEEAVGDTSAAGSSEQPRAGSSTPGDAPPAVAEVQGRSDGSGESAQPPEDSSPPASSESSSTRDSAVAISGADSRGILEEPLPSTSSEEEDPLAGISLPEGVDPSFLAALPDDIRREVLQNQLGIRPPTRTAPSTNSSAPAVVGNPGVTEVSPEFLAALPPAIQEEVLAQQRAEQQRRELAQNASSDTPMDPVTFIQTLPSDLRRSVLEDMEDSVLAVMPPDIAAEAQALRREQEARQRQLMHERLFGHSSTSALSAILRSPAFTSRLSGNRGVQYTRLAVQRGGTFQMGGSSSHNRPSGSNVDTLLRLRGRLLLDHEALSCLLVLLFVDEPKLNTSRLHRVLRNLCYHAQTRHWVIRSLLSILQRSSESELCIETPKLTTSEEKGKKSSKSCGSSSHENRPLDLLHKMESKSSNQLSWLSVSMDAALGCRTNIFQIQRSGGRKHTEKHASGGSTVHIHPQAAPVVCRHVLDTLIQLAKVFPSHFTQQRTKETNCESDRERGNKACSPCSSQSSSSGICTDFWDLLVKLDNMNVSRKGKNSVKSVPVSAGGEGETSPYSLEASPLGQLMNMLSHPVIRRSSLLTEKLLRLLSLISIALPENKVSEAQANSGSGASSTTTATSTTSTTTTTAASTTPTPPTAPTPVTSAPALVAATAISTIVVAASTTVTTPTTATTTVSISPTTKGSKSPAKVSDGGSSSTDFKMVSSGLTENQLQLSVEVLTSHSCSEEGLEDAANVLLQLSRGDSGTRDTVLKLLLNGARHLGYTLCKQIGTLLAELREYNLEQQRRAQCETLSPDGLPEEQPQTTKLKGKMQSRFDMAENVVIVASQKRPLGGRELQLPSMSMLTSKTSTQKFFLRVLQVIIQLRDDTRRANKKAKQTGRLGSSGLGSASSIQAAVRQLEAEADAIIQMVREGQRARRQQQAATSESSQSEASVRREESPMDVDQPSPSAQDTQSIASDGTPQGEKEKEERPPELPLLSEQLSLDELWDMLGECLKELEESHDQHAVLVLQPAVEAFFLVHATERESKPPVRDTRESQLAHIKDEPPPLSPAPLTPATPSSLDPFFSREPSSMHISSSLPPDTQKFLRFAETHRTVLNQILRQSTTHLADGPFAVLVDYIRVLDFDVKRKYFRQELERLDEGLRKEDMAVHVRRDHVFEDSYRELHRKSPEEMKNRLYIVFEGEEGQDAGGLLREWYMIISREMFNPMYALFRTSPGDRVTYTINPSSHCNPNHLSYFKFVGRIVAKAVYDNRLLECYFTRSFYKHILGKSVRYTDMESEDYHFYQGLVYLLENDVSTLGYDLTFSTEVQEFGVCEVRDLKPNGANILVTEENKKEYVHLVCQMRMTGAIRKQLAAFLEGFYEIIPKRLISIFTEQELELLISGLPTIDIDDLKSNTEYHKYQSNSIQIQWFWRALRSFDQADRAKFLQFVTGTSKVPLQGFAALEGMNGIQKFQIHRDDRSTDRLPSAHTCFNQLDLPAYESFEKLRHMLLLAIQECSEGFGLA

binding	Substance
binds	E3 ligase MuRF2 (TRIM55) (from UniProt Q9BYV6 1-548)
binds	HUWE1 (from UniProt Q7Z6Z7 1-4374)
binds	obscurin (OBSCN) (from UniProt Q5VST9 1-7968)
binds	obscurin-like protein 1 (OBSL1) (from UniProt O75147 1-1896)
